Measured values: patent publication US20090062512A1, “Comparative ligand mapping from MHC class I positive cells” (priority 2000, published 2009)
Entries after “also recorded” stand apart in the source; their conditions may differ. Part of at least one peptide drawing is inferred or uncertain, most often the ends. Some compounds share one wording; it may come from a single statement. Ends that are not written are not given here.

Legend:
[1] = tested on: HLA-A*0201 positive PBMC (CD8+); test: Tetramer staining of PBMC; type: cell-based, human; settings: PBMC of Subject 6, positive history of breast cancer (FIG. 8)
PBMC = test: IFN-γ ELISPOT; type: cell-based, human; settings: for IFN-γ response (ELISPOT): stimulated 1 week with peptide and IL-2
[2] = target: sHLA-A*0201 from MCF-7, MDA-MB-231, BT-20 and MCF10A (Homo sapiens, UniProt P04439, D140Y/D185E/D98H/E176V/E277Q/G131W/G231S/I119V/I121R/I166T/I218V/L300P/L318F/N151K/N90K/P208A/P217A/Q86G/Q94H/R138H/R169H/T345S); test: MS comparative analysis of sHLA-A*0201 peptides, breast cancer cell lines vs nontumorigenic MCF10A; type: cell-based

ALMPVLNQV
CD8+ recognition of HLA-A*0201 tetramer ([1]; listed as EXOSC6): CD8+ recognition; also recorded: confirming immune recognition | IFN-γ response (ELISPOT) (PBMC; PBMC of Subject 6, positive history of breast cancer, listed as EXOSC6): robust response; also recorded: confirming immune recognition

FLSELTQQL
IFN-γ response (ELISPOT) (PBMC; PBMC of Subject 1, positive history of breast cancer, listed as MIF): relatively robust IFN-γ response

GLNEEIARV
IFN-γ response (ELISPOT) (PBMC; PBMC of Subject 1, positive history of breast cancer, listed as KNTC2): relatively robust IFN-γ response

ILDQKINEV
immune recognition by the cohort of study participants (PBMC; tetramer staining and ELISPOT, all subjects): no immune recognition was detected

KIGEGTYGV
presentation by HLA A*0201 of tumorigenic vs nontumorigenic cell lines ([2]; MCF-7, MDA-MB-231, BT-20 vs MCF10A): presented by the HLA A*0201 of all three tumorigenic lines and missing from the MCF10A pool | Presenting cell lines ([2]; sHLA-A*0201, epitopes unique to breast cancer lines, absent from MCF10A): MCF-7, BT-20,; also recorded: MDA-MB-231 | CD8+ recognition of HLA-A*0201 tetramer ([1]; listed as Cdk2): CD8+ recognition; also recorded: staining of CD8+ cells; also recorded: recognize the Cdk2 tetramer | IFN-γ response (ELISPOT) (PBMC; PBMC of Subject 6, positive history of breast cancer, listed as Cdk2): did not produce IFN-γ; also recorded: lack of an IFN-γ response
